Results as given in the supplement of paper PMC3334620.
In all, about 33,000 sequences were measured (“E-score (-0.5 to 0.5)”: median about -0.016, highest 2% from about 0.3 on). This is one part of the list.

Biological target: T1, Yer184c (UniProt P39961)
T1 sequence: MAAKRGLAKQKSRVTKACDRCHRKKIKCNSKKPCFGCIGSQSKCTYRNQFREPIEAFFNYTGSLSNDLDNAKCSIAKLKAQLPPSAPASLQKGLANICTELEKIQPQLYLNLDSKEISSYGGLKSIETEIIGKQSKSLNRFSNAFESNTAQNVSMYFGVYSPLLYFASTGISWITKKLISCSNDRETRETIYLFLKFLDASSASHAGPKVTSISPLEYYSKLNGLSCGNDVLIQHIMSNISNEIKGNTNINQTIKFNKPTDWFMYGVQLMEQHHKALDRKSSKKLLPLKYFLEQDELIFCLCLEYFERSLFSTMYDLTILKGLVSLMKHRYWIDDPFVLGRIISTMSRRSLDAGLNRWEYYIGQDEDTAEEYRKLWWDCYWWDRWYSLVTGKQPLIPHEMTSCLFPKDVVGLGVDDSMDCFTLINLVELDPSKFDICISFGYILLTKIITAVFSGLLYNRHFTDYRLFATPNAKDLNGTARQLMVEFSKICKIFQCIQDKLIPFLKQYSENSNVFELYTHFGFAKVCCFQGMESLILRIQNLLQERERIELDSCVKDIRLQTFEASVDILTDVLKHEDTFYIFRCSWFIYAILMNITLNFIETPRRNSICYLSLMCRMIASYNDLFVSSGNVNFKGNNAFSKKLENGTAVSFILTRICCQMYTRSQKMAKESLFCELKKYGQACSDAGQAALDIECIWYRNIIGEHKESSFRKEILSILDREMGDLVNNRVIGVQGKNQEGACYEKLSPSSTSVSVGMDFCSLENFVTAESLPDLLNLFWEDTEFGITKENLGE
Assay: PBM E-score (8-mer binding enrichment) (E-score (-0.5 to 0.5)); higher = stronger / more preferred TF binding
Settings: protein concentration: 100 nM; construct: GST-full length
Protocol: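 Universal 'all 10-mer' protein binding microarrays (Agilent AMADID 015681) probed with GST-tagged S. cerevisiae TFs (full-length or DBD) made by in vitro transcription/translation (PURExpress), about 100-200 nM. Bound TF was detected with fluorescent anti-GST. Each ungapped 8-mer (which stands for itself and its reverse complement) is scored by the PBM enrichment score (E-score), a modified Wilcoxon-Mann-Whitney statistic from -0.5 to +0.5, computed with the Universal PBM Analysis Suite. Scale: above 0.35 generally sequence-specific binding.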

| Sequence | PBM E-score |
| --- | --- |
| CAGGATAG | 0.0949 |
| AGGTGCCC | -0.138 |
| ATGAACAT | 0.145 |
| CAAACTAG | -0.0624 |
| AGAAAGAG | -0.145 |
| ATCTTGGC | -0.141 |
| GAACAGTC | -0.0884 |
| CCCGTTTC | 0.00236 |
| ATCTTTCC | 0.0322 |
| ATGTGTGA | -0.158 |
| GATACGTA | 0.0184 |
| AAGTAATC | 0.0867 |
| CCATGCCA | -0.184 |
| AGTGAAAG | 0.115 |
| ATTCTCGC | -0.192 |
| CAAGGTCA | -0.186 |
| CTTTTCTA | -0.172 |
| AGGTGGAT | -0.105 |
| ACGATGAT | -0.14 |
| ATCAGTTA | 0.215 |
| TAGACTGA | -0.139 |
| CTTCTAAA | 0.118 |
| CGATCCAG | -0.177 |
| GTTCGGCA | 0.368 |
| ATAAAAAA | 0.289 |

| Sequence | PBM E-score |
| --- | --- |
| CGTGGCGA | -0.0176 |
| TCCGCACA | 0.0986 |
| GGGTACTA | -0.0391 |
| AACGTTAG | 0.0423 |
| CACTCCTA | 0.0638 |
| CTAAATTC | -0.0259 |
| CGGTTCAC | -0.0988 |
| GACTAAGA | 0.13 |
| AAGCGGAT | 0.0624 |
| AAGACGTA | -0.024 |
| ATGAGGTA | -0.0246 |
| ACGGCGTA | 0.0111 |
| GTGTTCTA | 0.015 |
| ATTTGAGA | -0.0548 |
| AAAAGTAT | 0.135 |
| AAGGAACC | 0.22 |
| AATCAACC | -0.163 |
| AGAAGTGC | -0.133 |
| AGCAAGCT | -0.246 |
| CTAAGAGC | -0.2 |
| AACCTCGA | 0.0188 |
| ACTCACCA | -0.176 |
| ACGCTGAG | -0.207 |
| AAAATACC | 0.284 |
| AAGACCCC | -0.192 |

| Sequence | PBM E-score |
| --- | --- |
| CGAATCAC | 0.0273 |
| TAATGGAA | 0.0893 |
| AACCGCGA | 0.225 |
| AGGGCGAC | -0.183 |
| GGGATGAC | -0.181 |
| CGTCATAG | -0.0696 |
| GAACATAA | 0.0766 |
| CCAGCTGG | -0.0667 |
| TCACCGCA | -0.0803 |
| AGGCCCAC | -0.399 |
| AAGCCGAC | 0.13 |
| AACTTGGA | -0.0966 |
| CCACCTCC | -0.224 |
| ACTTCCGA | 0.285 |
| CGTTCAGC | 0.0565 |
| ACCGTCAA | 0.109 |
| GAATACGC | 0.0179 |
| AGTGGCGA | -0.0299 |
| GCAACATA | -0.174 |
| CGGAAGCC | 0.211 |
| GTGTCTGA | -0.0506 |
| GCGAAGAA | 0.145 |
| GTGTCCTA | 0.0761 |
| ATTCCACG | -0.0835 |
| TGACACCA | -0.238 |

A second format for some results above.
Sequence	PBM E-score
GTGTCTGA	-0.0506
GCGAAGAA	0.145
GTGTCCTA	0.0761

Further results:

| Sequence | PBM E-score |
| --- | --- |
| GCCTAAAC | -0.00658 |
| GGCGGCAA | 0.129 |
| ATGGCCGA | 0.192 |
| TCGGGTAA | 0.0925 |
| CGGCCTGC | 0.0731 |
| AGCGCGTG | -0.13 |
| GCGGAGAC | 0.117 |
| AGTAGTGC | -0.113 |
| AAAAACCA | 0.221 |
| GGAAATCC | 0.0674 |
| GACGACGA | -0.0308 |
| GCGATAAC | 0.00351 |
| CATGTGAG | -0.289 |
| AGCCCGCT | -0.309 |
| ATACGTCG | -0.0234 |
| CGACCATA | -0.0566 |
| TACAAATA | 0.154 |
| AAAGACAT | -0.259 |
| CATTTGTA | 0.177 |
| CGGACCAC | 0.244 |
| AGGGGCAT | -0.358 |
| AAAGTTAC | 0.12 |
| GGTATTAA | 0.122 |
| AGACTGAG | 0.0116 |
| CGCCTGCA | -0.185 |

As a working copy, part of the list above:

| Sequence | PBM E-score |
| --- | --- |
| AGCGCGTG | -0.13 |
| GCGGAGAC | 0.117 |
| AGTAGTGC | -0.113 |
| AAAAACCA | 0.221 |

Remaining list, next part.

| Sequence | PBM E-score |
| --- | --- |
| ACGGACTG | -0.0943 |
| CGAACTAA | 0.164 |
| CCCGCAAA | 0.172 |
| TACCTAGA | -0.108 |
| AAACAAAA | 0.028 |
| ACAAAAAA | 0.272 |
| AACTAGGG | -0.303 |
| CACTGTCA | -0.0308 |
| CTCGCCTA | -0.00786 |
| CAGGAAAA | 0.105 |
| CGCGAGAA | -0.0977 |
| CCGTATGC | 0.00142 |
| GTCCATGA | -0.0857 |
| GCGCGACC | -0.0593 |
| CAGAAGGA | -0.224 |
| AACCTAAG | -0.181 |
| TTCTTAAA | -0.126 |
| CAGTTAAA | -0.0293 |
| AGCCCTCG | -0.11 |
| AACAGATG | -0.128 |
| CTTGGATA | 0.00064 |
| ACCAGTAG | 0.0107 |
| AAGGGTCT | -0.267 |
| GTTTAGGA | -0.163 |
| ATTGGCGA | -0.202 |

Copied from the list:
AAAAGTAT | PBM E-score: 0.135
AGCCCGCT | PBM E-score: -0.309

(continued)

| Sequence | PBM E-score |
| --- | --- |
| AGAGCGGA | 0.0727 |
| AATCACCT | 0.0242 |
| AAGGACTT | -0.131 |
| ATCTCATC | -0.163 |
| AGCCTCAT | -0.146 |
| CGAACCCA | -0.0147 |
| AAACTCTC | 0.169 |
| CATGGTTA | 0.0706 |
| CTGTACGA | -0.0324 |
| AGTGTGAG | -0.0574 |
| CAAATCCA | -0.0241 |
| CGCCACCG | -0.156 |
| CCTGGGAA | -0.0199 |
| ACGGTCAA | 0.0577 |
| CCGATTCG | 0.358 |
| CATTACGA | -0.206 |
| AACGATAA | 0.0408 |
| ATAACCCG | -0.00825 |
| CCTGATCA | -0.234 |
| AAAGGATC | 0.0245 |
| CGTCATCC | -0.138 |
| AGCAGAGC | -0.00172 |
| AGGACGTC | -0.12 |
| ATAAAGGG | -0.102 |
| GCCTTGCA | -0.148 |

| Sequence | PBM E-score |
| --- | --- |
| ACAATGCC | -0.171 |
| CCTCTAAA | -0.235 |
| AGCATCTC | -0.205 |
| GCACAAAA | 0.272 |
| ACCCTCTC | -0.312 |
| CACCATCG | -0.286 |
| GTCCCTAA | -0.158 |
| CTCGCAAA | -0.158 |
| GACTGTAC | -0.171 |
| ATTGCGCG | 0.183 |
| GGAAGCAA | -0.0564 |
| GACACGGC | 0.1 |
| ATCATTTA | 0.188 |
| CATAAGGC | -0.00543 |
| ACCTAATC | 0.168 |
| AAAGATAT | 0.0801 |
| ATGTGGAG | 0.00063 |
| GAATGCCC | -0.238 |
| TCGCAGCA | -0.0737 |
| CCAGATTC | -0.167 |
| CACGCCCG | 0.13 |
| GAAACATC | -0.00669 |
